# Results reported in PubChem BioAssay AID256 (DTP/NCI, 2004).
# The list shows only some results of the screen, not a fair sample: its compounds were picked by chemical class. Not every dose and run of a compound is shown. T/C is the treated group as % of the vehicle group. Some entries give survivors of the animals treated and no T/C: the source holds a T/C of zero for them, seemingly a mark for toxic or unscored doses. Survivors were counted at the toxicity check, usually on the fifth day, unless a day is given; later deaths do not show. Schedules are NCI's codes, read here as Q, the interval in days (D) or hours (H), X, the number of doses. Where survival is the endpoint, the PubChem record calls one and a half times the control and up active, and a quarter to a half above the control has no call in these data; cut-offs in other NCI protocols can differ. Some T/C values are marked as having no survivor count here; that says nothing about deaths at the dose. Some entries hold several experiments; the values are given in rising order. Counts like (3×) say how often a value occurs here.
# Tested on: CD2F1 mice, L1210 leukemia ip, survival T/C
# Assay: NCI In Vivo Anticancer Drug Screen. Data for tumor model L1210 Leukemia (intraperitoneal) in CD2F1 (CDF1) mice
# Settings: T/C endpoint: mean survival time, higher T/C = longer survival
# How it was run: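 Antitumor effect is scored in animals hosting a serially transplanted tumor. Values compare compound-dosed animals against vehicle-only controls as a simple quotient.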
# [1] = dose: 6.25 mg/kg/injection, schedule: Q01DX009 (ip), vehicle: Klucel (hydroxypropylcellulose) (HPC)
# [2] = dose: 12.5 mg/kg/injection, schedule: Q01DX009 (ip), vehicle: Klucel (hydroxypropylcellulose) (HPC)
# [3] = dose: 25.0 mg/kg/injection, schedule: Q01DX009 (ip), vehicle: Klucel (hydroxypropylcellulose) (HPC)
# [4] = dose: 50.0 mg/kg/injection, schedule: Q01DX009 (ip), vehicle: Klucel (hydroxypropylcellulose) (HPC)
# [5] = dose: 100.0 mg/kg/injection, schedule: Q01DX009 (ip), vehicle: Klucel (hydroxypropylcellulose) (HPC)
smiles,measurement,setting,value
CC1=CC(=O)C(N(CCCl)CCCl)=CC1=O,T/C,"dose: 0.1 mg/kg/injection, schedule: Q01DX009 (ip), vehicle: Klucel (hydroxypropylcellulose) (HPC)",114 % of control
same,T/C,"dose: 0.18 mg/kg/injection, schedule: Q01DX009 (ip), vehicle: Klucel (hydroxypropylcellulose) (HPC)",111 % of control
same,T/C,"dose: 0.19 mg/kg/injection, schedule: Q01DX009 (ip), vehicle: other",95 % of control
same,T/C,"dose: 0.2 mg/kg/injection, schedule: Q01DX009 (ip), vehicle: Klucel (hydroxypropylcellulose) (HPC)",116 % of control
same,T/C,"dose: 0.37 mg/kg/injection, schedule: Q01DX009 (ip), vehicle: Klucel (hydroxypropylcellulose) (HPC)",115 % of control
same,T/C,"dose: 0.39 mg/kg/injection, schedule: Q01DX009 (ip), vehicle: Klucel (hydroxypropylcellulose) (HPC)",100 % of control [survivor count not shown]
same,T/C,"dose: 0.39 mg/kg/injection, schedule: Q01DX009 (ip), vehicle: other",97 % of control
same,T/C,"dose: 0.4 mg/kg/injection, schedule: Q01DX009 (ip), vehicle: Klucel (hydroxypropylcellulose) (HPC)",118 % of control
same,T/C,"dose: 0.75 mg/kg/injection, schedule: Q01DX009 (ip), vehicle: Klucel (hydroxypropylcellulose) (HPC)",110 % of control
same,T/C,"dose: 0.78 mg/kg/injection, schedule: Q01DX009 (ip), vehicle: Klucel (hydroxypropylcellulose) (HPC)",100 % of control [survivor count not shown]
same,T/C,"dose: 0.78 mg/kg/injection, schedule: Q01DX009 (ip), vehicle: other",89 % of control
same,T/C,"dose: 0.8 mg/kg/injection, schedule: Q01DX009 (ip), vehicle: Klucel (hydroxypropylcellulose) (HPC)",124 % of control
same,T/C,"dose: 1.5 mg/kg/injection, schedule: Q01DX009 (ip), vehicle: Klucel (hydroxypropylcellulose) (HPC)",119 % of control
same,T/C,"dose: 1.56 mg/kg/injection, schedule: Q01DX009 (ip), vehicle: Klucel (hydroxypropylcellulose) (HPC)","101 [survivor count not shown], 117 [survivor count not shown], 123 % of control [survivor count not shown]"
same,T/C,"dose: 1.56 mg/kg/injection, schedule: Q01DX009 (ip), vehicle: other",101 % of control
same,T/C,"dose: 3.0 mg/kg/injection, schedule: Q01DX009 (ip), vehicle: Klucel (hydroxypropylcellulose) (HPC)",111 % of control
same,T/C,"dose: 3.12 mg/kg/injection, schedule: Q01DX009 (ip), vehicle: other",97 % of control
same,T/C,"dose: 3.13 mg/kg/injection, schedule: Q01DX009 (ip), vehicle: Klucel (hydroxypropylcellulose) (HPC)",110 [survivor count not shown] (2×) and 117 % of control [survivor count not shown]
same,T/C,"dose: 6.0 mg/kg/injection, schedule: Q01DX009 (ip), vehicle: Klucel (hydroxypropylcellulose) (HPC)",93 % of control
same,T/C,[1],"115 [survivor count not shown], 116 [survivor count not shown], 117 % of control [survivor count not shown]"
same,T/C,"dose: 6.25 mg/kg/injection, schedule: Q01DX009 (ip), vehicle: other",106 % of control
same,T/C,[2],90 % of control [survivor count not shown]
same,T/C,[3],86 % of control [survivor count not shown]
ClCCN(CCCl)Cc1nc2ccccc2[nH]1,T/C,"dose: 2.5 mg/kg/injection, schedule: Q01DX007 (ip), vehicle: saline",117 % of control [survivor count not shown]
same,T/C,"dose: 2.5 mg/kg/injection, schedule: Q01DX009 (ip), vehicle: saline","116 [survivor count not shown], 118 [survivor count not shown], 133 % of control [survivor count not shown]"
same,T/C,"dose: 2.5 mg/kg/injection, schedule: Q03DX003 (ip), vehicle: saline",115 % of control [survivor count not shown]
same,T/C,"dose: 5.0 mg/kg/injection, schedule: Q01DX007 (ip), vehicle: saline",119 % of control [survivor count not shown]
same,T/C,"dose: 5.0 mg/kg/injection, schedule: Q01DX009 (ip), vehicle: saline","121 [survivor count not shown], 125 [survivor count not shown], 147 % of control [survivor count not shown]"
same,T/C,"dose: 5.0 mg/kg/injection, schedule: Q03DX003 (ip), vehicle: saline",117 % of control [survivor count not shown]
same,T/C,"dose: 5.0 mg/kg/injection, schedule: Q04DX003 (ip), vehicle: saline",110 % of control [survivor count not shown]
same,T/C,"dose: 10.0 mg/kg/injection, schedule: Q01DX007 (ip), vehicle: saline",153 % of control [survivor count not shown]
same,T/C,"dose: 10.0 mg/kg/injection, schedule: Q01DX009 (ip), vehicle: saline","118 [survivor count not shown], 136 [survivor count not shown], 176 % of control [survivor count not shown]"
same,T/C,"dose: 10.0 mg/kg/injection, schedule: Q03DX003 (ip), vehicle: saline",128 % of control [survivor count not shown]
same,T/C,"dose: 10.0 mg/kg/injection, schedule: Q04DX003 (ip), vehicle: saline",135 % of control [survivor count not shown]
CCOc1ccc(N(CCCl)CCCl)cc1,T/C,[1],101 % of control
same,T/C,[2],110 % of control
same,T/C,[3],115 % of control
same,T/C,[4],113 % of control
same,T/C,[5],100 % of control
same,survivor count,"dose: 200.0 mg/kg/injection, schedule: Q01DX009 (ip), vehicle: Klucel (hydroxypropylcellulose) (HPC)",1 of 8
O=NN(CCCSCCCl)C(=O)NC1CCCCC1,T/C,"dose: 6.25 mg/kg/injection, schedule: Q01DX001 (ip), vehicle: distilled water + Tween-80",101 % of control
same,T/C,"dose: 12.5 mg/kg/injection, schedule: Q01DX001 (ip), vehicle: distilled water + Tween-80",104 % of control
same,T/C,"dose: 25.0 mg/kg/injection, schedule: Q01DX001 (ip), vehicle: distilled water + Tween-80",101 % of control
same,T/C,"dose: 50.0 mg/kg/injection, schedule: Q01DX001 (ip), vehicle: distilled water + Tween-80",101 % of control
same,T/C,"dose: 100.0 mg/kg/injection, schedule: Q01DX001 (ip), vehicle: distilled water + Tween-80",118 % of control
same,T/C,"dose: 200.0 mg/kg/injection, schedule: Q01DX001 (ip), vehicle: distilled water + Tween-80",119 % of control
ClCCN(CCCl)c1ccc(CN2CCCCC2)cc1,T/C,[1],105 % of control [survivor count not shown]
same,T/C,[2],114 % of control [survivor count not shown]
same,T/C,[3],105 % of control [survivor count not shown]
S=C=Nc1ccc(N(CCCl)CCCl)cc1,T/C,"dose: 100.0 mg/kg/injection, schedule: Q01DX001 (ip), vehicle: Klucel (hydroxypropylcellulose) (HPC)",100 % of control [survivor count not shown]
same,T/C,"dose: 200.0 mg/kg/injection, schedule: Q01DX001 (ip), vehicle: Klucel (hydroxypropylcellulose) (HPC)",105 % of control [survivor count not shown]
same,T/C,"dose: 400.0 mg/kg/injection, schedule: Q01DX001 (ip), vehicle: Klucel (hydroxypropylcellulose) (HPC)",115 % of control [survivor count not shown]
Nc1cc(N)cc(N(CCCl)CCCl)c1,T/C,"dose: 2.5 mg/kg/injection, schedule: Q01DX009 (ip), vehicle: Klucel (hydroxypropylcellulose) (HPC)",103 % of control [survivor count not shown]
same,T/C,"dose: 5.0 mg/kg/injection, schedule: Q01DX009 (ip), vehicle: Klucel (hydroxypropylcellulose) (HPC)",105 % of control [survivor count not shown]
same,T/C,"dose: 10.0 mg/kg/injection, schedule: Q01DX009 (ip), vehicle: Klucel (hydroxypropylcellulose) (HPC)",90 % of control [survivor count not shown]
CCNP(=O)(OCCC(C)=O)N(CCCl)CCCl (stereo unspecified),T/C,"dose: 14.7 mg/kg/injection, schedule: Q01DX001 (ip), vehicle: DMSO",102 % of control [survivor count not shown]
same,T/C,"dose: 22.0 mg/kg/injection, schedule: Q01DX001 (ip), vehicle: DMSO",105 % of control [survivor count not shown]
same,T/C,"dose: 33.0 mg/kg/injection, schedule: Q01DX001 (ip), vehicle: DMSO",108 % of control [survivor count not shown]
same,T/C,"dose: 50.0 mg/kg/injection, schedule: Q01DX001 (ip), vehicle: DMSO",111 [survivor count not shown] and 135 % of control [survivor count not shown]
same,T/C,"dose: 75.0 mg/kg/injection, schedule: Q01DX001 (ip), vehicle: DMSO",141 % of control [survivor count not shown]
same,T/C,"dose: 113.0 mg/kg/injection, schedule: Q01DX001 (ip), vehicle: DMSO",155 % of control [survivor count not shown]
Cc1ccc(N(CCCl)CCCl)cc1,T/C,[1],103 % of control [survivor count not shown]
same,T/C,[2],106 % of control [survivor count not shown]
same,T/C,[3],108 % of control [survivor count not shown]
same,T/C,[4],103 % of control [survivor count not shown]
same,T/C,[5],105 % of control [survivor count not shown]
